Laboratory results: article PMC5038147
These are yes or no findings as the source states them, for the method shown. In cells and extracts the contact can be indirect. Some results given as binding are weak or reduced against the parent protein; the word gives no strength. Tags and fused reporters may be left off the sequences shown.

The chains behind the UniProt entries cited, without tags or fusion partners.
UniProt Q9UGP4: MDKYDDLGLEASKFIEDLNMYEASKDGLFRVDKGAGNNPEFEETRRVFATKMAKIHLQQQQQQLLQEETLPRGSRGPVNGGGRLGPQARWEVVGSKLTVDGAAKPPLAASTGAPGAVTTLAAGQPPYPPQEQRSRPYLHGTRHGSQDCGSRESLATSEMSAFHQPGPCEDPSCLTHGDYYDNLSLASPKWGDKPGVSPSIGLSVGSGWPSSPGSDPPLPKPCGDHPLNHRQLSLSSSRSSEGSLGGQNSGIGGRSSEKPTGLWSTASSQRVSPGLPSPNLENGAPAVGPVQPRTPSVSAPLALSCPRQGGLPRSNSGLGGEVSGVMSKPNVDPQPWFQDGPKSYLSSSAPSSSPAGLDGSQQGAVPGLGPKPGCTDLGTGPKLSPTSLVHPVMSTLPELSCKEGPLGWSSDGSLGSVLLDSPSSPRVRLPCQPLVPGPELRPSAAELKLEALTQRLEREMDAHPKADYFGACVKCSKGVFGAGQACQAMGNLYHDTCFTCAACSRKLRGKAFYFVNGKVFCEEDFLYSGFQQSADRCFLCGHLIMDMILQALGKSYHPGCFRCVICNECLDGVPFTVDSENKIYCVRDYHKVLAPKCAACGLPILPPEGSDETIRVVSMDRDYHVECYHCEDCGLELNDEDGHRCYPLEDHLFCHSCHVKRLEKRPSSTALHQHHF
UniProt P46937: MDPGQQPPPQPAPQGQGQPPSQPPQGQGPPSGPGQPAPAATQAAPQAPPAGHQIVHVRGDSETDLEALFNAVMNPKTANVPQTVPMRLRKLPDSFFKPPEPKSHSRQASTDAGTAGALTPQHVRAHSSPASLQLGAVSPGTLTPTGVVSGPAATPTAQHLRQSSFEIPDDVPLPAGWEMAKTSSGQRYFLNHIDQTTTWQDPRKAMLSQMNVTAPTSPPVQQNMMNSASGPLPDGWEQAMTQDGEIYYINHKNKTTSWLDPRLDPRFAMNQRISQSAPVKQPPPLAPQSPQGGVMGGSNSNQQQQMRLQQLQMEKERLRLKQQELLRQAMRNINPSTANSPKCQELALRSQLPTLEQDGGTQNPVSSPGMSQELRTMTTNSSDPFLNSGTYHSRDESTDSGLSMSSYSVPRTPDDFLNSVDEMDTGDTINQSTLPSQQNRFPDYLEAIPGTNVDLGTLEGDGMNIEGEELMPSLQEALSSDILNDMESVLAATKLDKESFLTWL

Key:
[1] = target: human LIMD1 (wild type, transfected) (human) (UniProt Q9UGP4); assay: co-IP; HEK293T cells transfected with LIMD1 (wild type or LIM domain deletion mutant) and one individual Hippo component or YAP; LIMD1 immunoprecipitated, bound products Western blotted; IP buffer 10 mM HEPES pH 7.4, 150 mM NaCl, 10% glycerol, 1% NP-40 or CHAPS, 4°C
[2] = target: T1, MST2 (epitope-tagged, transfected) (UniProt Q13188); assay: co-IP; HEK293T cells transfected with all four epitope-tagged Hippo core kinase complex components (MST2, WW45, LATS2, wt MOB1A), with or without LIMD1 or hLIMD1 mutants, with or without YAP; MST2 immunoprecipitated
T1 sequence: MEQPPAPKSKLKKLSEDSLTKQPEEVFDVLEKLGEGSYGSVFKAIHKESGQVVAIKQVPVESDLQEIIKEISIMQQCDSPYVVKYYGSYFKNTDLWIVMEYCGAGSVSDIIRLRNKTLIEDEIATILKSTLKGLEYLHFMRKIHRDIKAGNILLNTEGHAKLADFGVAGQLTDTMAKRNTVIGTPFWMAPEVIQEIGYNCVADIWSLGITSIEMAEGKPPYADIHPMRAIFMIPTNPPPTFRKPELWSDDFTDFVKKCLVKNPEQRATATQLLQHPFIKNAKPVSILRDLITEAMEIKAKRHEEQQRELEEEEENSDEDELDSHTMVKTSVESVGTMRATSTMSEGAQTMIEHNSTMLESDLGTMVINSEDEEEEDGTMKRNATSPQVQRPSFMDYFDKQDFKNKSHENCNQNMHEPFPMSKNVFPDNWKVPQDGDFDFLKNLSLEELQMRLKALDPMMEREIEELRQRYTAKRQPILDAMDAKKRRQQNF

[3] = target: T2, LATS2 (epitope-tagged, transfected) (UniProt Q9NRM7); assay: co-IP; HEK293T cells transfected with epitope-tagged LATS2 and one other protein (MOB1A without or with increasing amounts of LIMD1; or YAP alone); LATS2 immunoprecipitated
T2 sequence: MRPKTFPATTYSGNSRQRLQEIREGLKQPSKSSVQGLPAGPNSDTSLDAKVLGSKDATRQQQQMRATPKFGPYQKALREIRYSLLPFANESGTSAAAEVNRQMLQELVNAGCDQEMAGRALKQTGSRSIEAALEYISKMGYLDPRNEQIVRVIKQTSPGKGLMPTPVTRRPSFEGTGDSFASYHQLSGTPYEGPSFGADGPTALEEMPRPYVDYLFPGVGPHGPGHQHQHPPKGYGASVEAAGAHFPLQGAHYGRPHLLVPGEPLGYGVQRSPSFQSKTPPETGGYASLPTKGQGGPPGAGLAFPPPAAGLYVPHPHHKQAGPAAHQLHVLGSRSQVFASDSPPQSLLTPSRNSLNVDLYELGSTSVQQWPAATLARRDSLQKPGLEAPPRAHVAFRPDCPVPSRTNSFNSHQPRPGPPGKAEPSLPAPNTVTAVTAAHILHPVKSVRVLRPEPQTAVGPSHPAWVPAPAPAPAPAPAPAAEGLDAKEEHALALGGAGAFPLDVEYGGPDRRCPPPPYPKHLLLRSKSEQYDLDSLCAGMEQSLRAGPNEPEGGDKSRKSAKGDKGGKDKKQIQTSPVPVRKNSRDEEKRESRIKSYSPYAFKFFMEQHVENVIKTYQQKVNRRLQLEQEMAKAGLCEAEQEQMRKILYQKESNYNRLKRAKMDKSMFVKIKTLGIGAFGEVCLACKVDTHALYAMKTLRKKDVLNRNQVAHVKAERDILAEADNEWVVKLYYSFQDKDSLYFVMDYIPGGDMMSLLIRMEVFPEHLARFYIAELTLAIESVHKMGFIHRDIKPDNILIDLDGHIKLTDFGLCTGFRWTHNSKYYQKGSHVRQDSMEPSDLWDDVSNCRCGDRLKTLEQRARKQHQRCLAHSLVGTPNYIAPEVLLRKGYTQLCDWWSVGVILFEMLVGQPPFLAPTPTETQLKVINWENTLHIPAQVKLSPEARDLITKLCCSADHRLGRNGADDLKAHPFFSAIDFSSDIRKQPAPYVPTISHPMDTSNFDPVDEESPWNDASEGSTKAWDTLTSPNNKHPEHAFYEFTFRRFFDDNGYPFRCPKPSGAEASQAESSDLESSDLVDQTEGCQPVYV

Row | Molecule | binding [1] | binding [2] | binding [3]
1 | YAP (transfected) (from UniProt P46937 1-504) | no binding |  | 
2 | MOB1A (wild type, epitope-tagged, transfected) (protein, UniProt Q9H8S9 1-216) MSFLFSSRSSKTFKPKKNIPEGSHQYELLKHAEATLGSGNLRQAVMLPEGEDLNEWIAVNTVDFFNQINMLYGTITEFCTEASCPVMSAGPRYEYHWADGTNIKKPIKCSAPKYIDYLMTWVQDQLDDETLFPSKIGVPFPKNFMSVAKTILKRLFRVYAHIYHQHFDSVMQLQEEAHLNTSFKHFIFFVQEFNLIDRRELAPLQELIEKLGSKDR | no binding | binds | binds
